Source: paper PMC9798610
Results are given in words; binding and its absence hold for the method and conditions named. Binding seen in cells or lysates may run through a third protein. Some binding calls cover weakened binding; strength is not graded here.

Biological target: T1, apoptosis-associated speck-like protein containing a CARD (ASC) (mouse (endogenous in BMDMs)) (UniProt Q9EPB4)
T1 sequence: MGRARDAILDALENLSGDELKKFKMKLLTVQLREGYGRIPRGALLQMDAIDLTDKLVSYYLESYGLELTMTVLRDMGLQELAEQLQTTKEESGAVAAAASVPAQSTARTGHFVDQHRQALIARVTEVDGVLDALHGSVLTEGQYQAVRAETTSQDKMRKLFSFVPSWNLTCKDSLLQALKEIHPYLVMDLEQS
Assay: co-IP; endogenous proteins; LPS (500 ng/ml)-primed BMDMs treated with or without LND (0.2 mM) for 30 min, then ATP for 30 min; IP lysis buffer, primary antibody or normal IgG overnight at 4 °C, protein G beads, immunoblot

B1: caspase-1 (enzyme, UniProt P29452 1-402)
chain: MADKILRAKRKQFINSVSIGTINGLLDELLEKRVLNQEEMDKIKLANITAMDKARDLCDHVSKKGPQASQIFITYICNEDCYLAGILELQSAPSAETFVATEDSKGGHPSSSETKEEQNKEDGTFPGLTGTLKFCPLEKAQKLWKENPSEIYPIMNTTTRTRLALIICNTEFQHLSPRVGAQVDLREMKLLLEDLGYTVKVKENLTALEMVKEVKEFAACPEHKTSDSTFLVFMSHGIQEGICGTTYSNEVSDILKVDTIFQMMNTLKCPSLKDKPKVIIIQACRGEKQGVVLLKDSVRDSEEDFLTDAIFEDDGIKKAHIEKDFIAFCSSTPDNVSWRHPVRGSLFIESLIKHMKEYAWSCDLEDIFRKVRFSFEQPEFRLQMPTADRVTLTKRFYLFPGH
With B1 the binding was “binds”.
